According to PMC6977684:
No constants are given. Whether binding was seen depends on the method and setting. Binding seen in cells or lysates may run through a third protein. Some entries that bind do so weakly or less than the wild type. For some assays here: Sequences can lack the tags named with a protein. One block for each molecule: values may come before it.

Amino acid sequences for entries named in this document (tags omitted).
UniProt P15144: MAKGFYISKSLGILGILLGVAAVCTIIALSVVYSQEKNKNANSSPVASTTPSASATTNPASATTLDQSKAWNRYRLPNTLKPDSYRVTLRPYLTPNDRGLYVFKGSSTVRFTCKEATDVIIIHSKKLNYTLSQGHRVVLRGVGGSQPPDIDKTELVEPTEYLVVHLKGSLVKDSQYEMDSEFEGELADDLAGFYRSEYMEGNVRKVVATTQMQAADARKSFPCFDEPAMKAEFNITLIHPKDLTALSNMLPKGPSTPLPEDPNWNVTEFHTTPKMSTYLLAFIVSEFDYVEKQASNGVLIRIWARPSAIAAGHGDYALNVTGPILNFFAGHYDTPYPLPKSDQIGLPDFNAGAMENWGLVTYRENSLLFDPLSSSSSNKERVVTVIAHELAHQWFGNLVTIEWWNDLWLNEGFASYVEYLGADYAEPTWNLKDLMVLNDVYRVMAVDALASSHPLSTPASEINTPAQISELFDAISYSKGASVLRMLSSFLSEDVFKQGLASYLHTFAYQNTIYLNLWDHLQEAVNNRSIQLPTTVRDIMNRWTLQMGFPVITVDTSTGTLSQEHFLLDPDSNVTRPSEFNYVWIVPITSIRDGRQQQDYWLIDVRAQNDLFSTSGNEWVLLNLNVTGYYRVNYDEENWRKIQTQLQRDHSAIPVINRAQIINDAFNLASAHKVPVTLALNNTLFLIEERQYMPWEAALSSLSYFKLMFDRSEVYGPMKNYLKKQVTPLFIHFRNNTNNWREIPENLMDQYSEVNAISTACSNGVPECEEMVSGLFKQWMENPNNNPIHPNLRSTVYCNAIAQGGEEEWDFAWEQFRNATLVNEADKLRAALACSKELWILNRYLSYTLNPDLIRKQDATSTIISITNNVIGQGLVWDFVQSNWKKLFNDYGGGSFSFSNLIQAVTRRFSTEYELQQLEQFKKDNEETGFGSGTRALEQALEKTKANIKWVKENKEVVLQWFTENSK
UniProt P27986: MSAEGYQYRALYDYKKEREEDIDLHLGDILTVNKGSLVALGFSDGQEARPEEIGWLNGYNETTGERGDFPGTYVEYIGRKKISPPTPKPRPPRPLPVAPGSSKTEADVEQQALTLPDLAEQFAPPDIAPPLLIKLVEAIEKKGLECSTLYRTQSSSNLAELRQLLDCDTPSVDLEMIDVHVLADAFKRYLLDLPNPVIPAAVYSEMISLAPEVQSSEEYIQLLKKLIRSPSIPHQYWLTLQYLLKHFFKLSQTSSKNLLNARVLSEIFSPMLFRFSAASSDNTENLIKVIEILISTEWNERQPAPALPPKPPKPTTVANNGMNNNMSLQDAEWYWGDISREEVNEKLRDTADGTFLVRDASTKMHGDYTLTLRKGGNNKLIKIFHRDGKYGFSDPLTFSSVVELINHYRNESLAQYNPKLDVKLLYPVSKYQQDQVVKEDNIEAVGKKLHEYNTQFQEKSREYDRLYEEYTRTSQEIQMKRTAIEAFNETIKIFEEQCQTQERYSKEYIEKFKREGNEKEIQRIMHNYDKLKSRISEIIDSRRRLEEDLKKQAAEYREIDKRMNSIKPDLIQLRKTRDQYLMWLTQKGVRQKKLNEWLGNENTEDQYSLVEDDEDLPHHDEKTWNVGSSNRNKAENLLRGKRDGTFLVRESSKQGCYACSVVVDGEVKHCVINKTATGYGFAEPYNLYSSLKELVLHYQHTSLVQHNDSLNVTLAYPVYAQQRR

Assays:
[1] = target: T1, Flag-EMP3 (in MKN-45/DDP cells) (human) (UniProt P54852); experiment: co-IP; MKN-45/DDP cells, anti-Flag or anti-HA antibodies; also in Ubenimex-treated MKN-45/DDP cells (attenuated)
T1 sequence: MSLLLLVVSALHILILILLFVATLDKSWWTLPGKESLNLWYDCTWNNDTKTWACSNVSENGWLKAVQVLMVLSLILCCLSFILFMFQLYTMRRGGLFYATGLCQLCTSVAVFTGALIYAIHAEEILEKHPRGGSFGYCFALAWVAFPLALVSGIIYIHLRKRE

[2] = target: CD13 (human (endogenous in MKN-45/DDP)) (UniProt P15144); experiment: co-IP; endogenous CD13 and EMP3 in MKN-45/DDP cells, precipitated with anti-CD13 or anti-EMP3; also in Ubenimex-treated MKN-45/DDP cells (association reduced)

binding [1]: binds
Molecule: HA-P85 (from UniProt P27986 1-724)

binding [2]: binds
B1: Epithelial membrane protein 3 (protein, UniProt P54852 1-163)
chain: T1 sequence
